# Experimental data: PubChem BioAssay (EPA / NIEHS)
# Chains of the proteins cited; added tags and fusions are not shown. Lines headed by an entry give the natural chain unless they say otherwise; changes in a name come on top.
# UniProt P19793: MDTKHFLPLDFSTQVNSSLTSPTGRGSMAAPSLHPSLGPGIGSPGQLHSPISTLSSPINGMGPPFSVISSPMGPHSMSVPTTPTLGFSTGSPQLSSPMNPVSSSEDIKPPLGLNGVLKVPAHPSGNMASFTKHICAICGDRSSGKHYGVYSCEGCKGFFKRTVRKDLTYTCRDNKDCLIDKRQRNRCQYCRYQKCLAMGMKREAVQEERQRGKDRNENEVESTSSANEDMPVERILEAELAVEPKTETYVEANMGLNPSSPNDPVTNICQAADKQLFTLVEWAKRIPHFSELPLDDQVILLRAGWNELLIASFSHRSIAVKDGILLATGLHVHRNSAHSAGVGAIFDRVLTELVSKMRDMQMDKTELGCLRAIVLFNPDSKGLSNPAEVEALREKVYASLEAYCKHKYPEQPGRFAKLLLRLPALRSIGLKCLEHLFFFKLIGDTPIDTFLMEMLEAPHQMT
# UniProt P37231: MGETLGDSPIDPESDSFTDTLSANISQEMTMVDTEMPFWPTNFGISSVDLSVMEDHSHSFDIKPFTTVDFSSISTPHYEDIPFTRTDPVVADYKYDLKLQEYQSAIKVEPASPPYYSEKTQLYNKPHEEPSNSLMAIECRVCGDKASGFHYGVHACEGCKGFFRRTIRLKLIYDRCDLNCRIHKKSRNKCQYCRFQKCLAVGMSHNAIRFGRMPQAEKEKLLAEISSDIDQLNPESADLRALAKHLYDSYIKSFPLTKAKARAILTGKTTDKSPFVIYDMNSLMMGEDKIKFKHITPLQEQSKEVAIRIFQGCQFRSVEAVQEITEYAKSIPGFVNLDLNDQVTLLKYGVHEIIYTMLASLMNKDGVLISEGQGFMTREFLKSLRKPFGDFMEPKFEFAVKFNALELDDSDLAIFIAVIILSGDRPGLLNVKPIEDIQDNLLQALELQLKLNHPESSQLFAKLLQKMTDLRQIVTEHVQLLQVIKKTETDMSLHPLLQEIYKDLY
# UniProt P04637, whole entry, looked up: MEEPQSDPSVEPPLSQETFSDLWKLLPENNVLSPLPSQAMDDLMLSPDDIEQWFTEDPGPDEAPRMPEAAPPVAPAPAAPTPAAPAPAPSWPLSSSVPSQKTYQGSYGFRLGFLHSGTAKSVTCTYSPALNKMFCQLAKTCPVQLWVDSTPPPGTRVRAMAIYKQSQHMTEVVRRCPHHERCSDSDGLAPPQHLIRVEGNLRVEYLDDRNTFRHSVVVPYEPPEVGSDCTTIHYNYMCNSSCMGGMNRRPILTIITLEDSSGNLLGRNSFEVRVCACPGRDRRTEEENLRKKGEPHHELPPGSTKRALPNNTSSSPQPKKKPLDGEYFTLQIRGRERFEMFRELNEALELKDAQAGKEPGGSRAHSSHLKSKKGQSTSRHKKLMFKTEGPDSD
# UniProt Q96RI1: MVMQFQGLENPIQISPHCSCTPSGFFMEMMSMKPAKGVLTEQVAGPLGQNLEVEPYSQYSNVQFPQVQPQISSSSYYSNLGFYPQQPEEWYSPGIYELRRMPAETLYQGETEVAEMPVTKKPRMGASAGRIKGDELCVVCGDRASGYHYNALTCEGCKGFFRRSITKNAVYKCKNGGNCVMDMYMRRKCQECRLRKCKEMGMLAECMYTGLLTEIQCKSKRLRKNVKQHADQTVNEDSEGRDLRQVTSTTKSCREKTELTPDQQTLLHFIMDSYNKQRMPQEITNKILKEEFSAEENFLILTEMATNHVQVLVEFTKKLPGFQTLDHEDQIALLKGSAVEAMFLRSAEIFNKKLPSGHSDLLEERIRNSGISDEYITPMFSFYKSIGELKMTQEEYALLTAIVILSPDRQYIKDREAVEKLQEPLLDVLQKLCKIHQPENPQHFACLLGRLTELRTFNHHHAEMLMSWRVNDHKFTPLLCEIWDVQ
# Several values for one entry are separate records, joined by “and”; a condition that tells them apart may be missing. Identical values can stand only once. The shares of active, inactive and inconclusive entries below differ from those in the screen. Where the call is inconclusive, the potency comes from a doubtful curve fit. More than one record can exist for a structure, and the calls need not agree. Activity calls are given as the source filed them. Rule for the calls: active = hit-call score of the fitted dose curve at least 0.9, where 1 is the maximum; inconclusive = response in the unintended direction; inactive = score below 0.9.
# Tests used:
# [1] = target: Retinoic acid receptor RXR-alpha (Homo sapiens) (UniProt P19793); assay: OT_NURR1_NURR1RXRa_0480: Odyssey Thera (OT) 8-hour HEK293T Protein Complementation Assay for Nurr1/retinoid X receptor (RXR) (AID 2283385)
# Summary of the method: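 HEK293T cells expressing Nurr1 and RXRα fused to reporter fragments (protein-fragment complementation); fluorescence measured 8 h after dosing. Gain of signal fitted relative to DMSO.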
# [2] = target: Peroxisome proliferator-activated receptor gamma (Homo sapiens) (UniProt P37231); assay: OT_PPARg_PPARgSRC1_0480: Odyssey Thera (OT) 8-hour Protein-Complementation Assay for Peroxisome Proliferator-activated Receptor Gamma / SRC-1 Co-activator (AID 2283387);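 note: nuclear to cytoplasmic split Venus YFP fluorescence ratio reporting PPARg SRC-1 interaction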
# Summary of the method: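 HEK293T transiently transfected with PPARg and SRC-1 fused to Venus YFP fragments, compounds 8 h at 37C. Fixed, Draq5-stained cells imaged; nuclear/cytoplasmic 488 nm fluorescence ratio over at least 350 cells per image; gain fitted versus DMSO.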
# [3] = target: Cellular tumor antigen p53 (Homo sapiens) (UniProt P04637); assay: TOX21_p53_BLA_p5_ratio: Tox21 HCT-116 p53 Agonism Beta-lactamase Assay, Ratio, Phase 5 (AID 2283599)
# Summary of the method: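 HCT-116 cells carrying a p53-inducible beta-lactamase reporter were seeded at 4000 cells/well and dosed after 5 h with compound in DMSO (217-fold dilution). After 16 h at 37C, CCF4-AM substrate was added for 2 h, and the 460/530 nm emission ratio was scored as gain-of-signal versus DMSO.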
# [4] = TOX21_p53_BLA_p5_viability: Viability Assessment in the Tox21 HCT-116 p53 Agonism Beta-lactamase Assay, Phase 5 (AID 2283600)
# Summary of the method: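 After the 460/530 nm beta-lactamase measurement, the wells received an ATP-detection luciferase reagent; signal was read 30 min later at RT. Compound treatment lasted 16 h on cells pre-incubated 5 h post-seeding.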
# [5] = target: Bile acid receptor (Homo sapiens) (UniProt Q96RI1); assay: OT_FXR_FXRSRC1_1440: Odyssey Thera (OT) 24-hour HEK293T Protein-Complementation Assay for Farnesoid X receptor/SRC-1 Co-activator (AID 2283384)
# Summary of the method: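 HEK293T cells, 24 h after chemical dosing. FXR–SRC-1 coactivator interaction read as fluorescence from protein-fragment complementation of a split reporter. Gain of signal fitted against DMSO baseline.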
# [6] = target: Retinoic acid receptor RXR-alpha (Homo sapiens) (UniProt P19793); assay: OT_NURR1_NURR1RXRa_1440: Odyssey Thera (OT) 24-hour HEK293T Protein Complementation Assay for Nurr1/retinoid X receptor (RXR) (AID 2283386)
# Summary of the method: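 HEK293T protein-fragment complementation of Nurr1 and RXRα fused to reporter fragments; compounds 24 h. Fluorescence gain from reconstituted reporter fitted versus DMSO.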
# [7] = TOX21_p53_BLA_p2_viability: Viability Assessment in the Tox21 HCT-116 p53 Agonism Beta-lactamase Assay, Phase 2 (AID 2283591);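 note: compound exposure lasted 16 h at 37 °C; actives lower the ATP signal meaning cytotoxicity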
# Summary of the method: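 HCT-116 p53-bla cells (4000/well) rested 5 h at 37C, then received compounds in DMSO (217-fold dilution) for 16 h at 37C, 5% CO2. After the CCF4 read, CellTiter-Glo was added; ATP luminescence was read after 30 min at room temperature.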
# [8] = target: Cellular tumor antigen p53 (Homo sapiens) (UniProt P04637); assay: TOX21_p53_BLA_p3_ratio: Tox21 HCT-116 p53 Agonism Beta-lactamase Assay, Ratio, Phase 3 (AID 2283596)
# Summary of the method: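 HCT116 p53-bla cells (4000/well) given compound in DMSO (217-fold dilution) after 5 h, incubated 16 h at 37C. CCF4-AM substrate 2 h at room temperature; 460/530 nm emission ratio, gain fitted against DMSO.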
# [9] = TOX21_p53_BLA_p4_viability: Viability Assessment in the Tox21 HCT-116 p53 Agonism Beta-lactamase Assay, Phase 4 (AID 2283597);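 note: hits lower the luminescence signal meaning cytotoxicity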
# Summary of the method: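 Following a 16 h exposure at 37C, the treated HCT116 wells were first read for the FRET ratio. They were then lysed with CellTiter-Glo, and ATP luminescence was recorded after 30 min at room temperature.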
# [10] = target: Cellular tumor antigen p53 (Homo sapiens) (UniProt P04637); assay: TOX21_p53_BLA_p2_ratio: Tox21 HCT-116 p53 Agonism Beta-lactamase Assay, Ratio, Phase 2 (AID 2283592)
# Summary of the method: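 Gain-of-signal p53 agonism was scored from the beta-lactamase FRET ratio (460/530 nm, 405 nm excitation) in HCT116 cells treated 16 h at 37C, 5% CO2, with DMSO serving as negative control and baseline.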
# [11] = TOX21_p53_BLA_p3_viability: Viability Assessment in the Tox21 HCT-116 p53 Agonism Beta-lactamase Assay, Phase 3 (AID 2283593);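 note: cells exposed to compound for 16 h before reading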
# Summary of the method: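 HCT-116 cells (4000/well) rested 5 h at 37C, then got DMSO compounds by pin tool (217-fold dilution) for 16 h at 37C, 5% CO2. After the bla read, CellTiter-Glo was added and luminescence read at 30 min, room temperature.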
# [12] = ATG_XTT_Cytotoxicity: Cytotoxicity Assessment in the Attagene TRANS-FACTORIAL HepG2 Assay (AID 2283584);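 note: cells exposed to compound for 24 h before reading; active means loss of viability signal versus DMSO baseline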
# Summary of the method: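 Viability endpoint from XTT after 24 h chemical exposure of reporter-transfected human HepG2 liver cells; signal loss fitted relative to DMSO negative control.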
# [13] = target: Cellular tumor antigen p53 (Homo sapiens) (UniProt P04637); assay: TOX21_p53_BLA_p4_ratio: Tox21 HCT-116 p53 Agonism Beta-lactamase Assay, Ratio, Phase 4 (AID 2283601)
# Summary of the method: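 HCT116 cells carrying an inducible beta-lactamase reporter were plated at 4000 cells/well, rested 5 h, then exposed to compounds in DMSO (217-fold dilution) for 16 h at 37C. CCF4-AM substrate was loaded 2 h at room temperature; 460/530 nm emission ratio scored gain-of-signal versus DMSO.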
smiles,measurement,setting,value
C[C@]12CCC(=O)C[C@@H]1CC[C@@H]1[C@@H]2CC[C@]2(C)[C@@H](O)CC[C@@H]12,AC50,[1],inconclusive: 0.5 µM
same,outcome,[1],inactive
same,AC50,[2],inconclusive: 0.00318 µM
same,AC50,[3],inconclusive: 45.6 µM and inconclusive: 23 µM
same,outcome,[4],inactive
Cc1ccc([N+](=O)[O-])cc1C,outcome,[5],inactive
same,AC50,[6],inconclusive: 4.09 µM
COP(=S)(OC)Oc1nc(Cl)c(Cl)cc1Cl,AC50,[5],inconclusive: 0.242 µM
same,AC50,[6],inconclusive: 50 µM
same,outcome,[6],inactive
same,outcome,[7],inactive
same,AC50,[8],inconclusive: 46.1 µM
same,AC50,[9],inconclusive: 46.1 µM
C1CC2OC2CC1C1CO1 (centres undefined),AC50,[1],inconclusive: 16.8 µM
same,outcome,[1],inactive
same,AC50,[6],inconclusive: 12.3 µM
same,AC50,[10],inconclusive: 85.7 µM
same,AC50,[11],inconclusive: 83.2 µM and inconclusive: 45.4 µM
same,AC50,[8],inconclusive: 81.8 µM
same,outcome,[8],inactive
same,outcome,[9],inactive
same,AC50,[3],inconclusive: 46.1 µM and inconclusive: 45.4 µM
CCOP(=S)(Oc1cnc(C(C)(C)C)nc1)OC(C)C (centres undefined),AC50,[1],active: 73.2 µM
same,outcome,[1],inactive
same,AC50,[6],active: 78.8 µM
same,AC50,[7],inconclusive: 46.1 µM
same,AC50,[11],inconclusive: 12 µM
same,AC50,[3],inconclusive: 46.1 µM
same,outcome,[4],inactive
Cc1c(COC(=O)[C@@H]2[C@H](/C=C(\Cl)C(F)(F)F)C2(C)C)cccc1-c1ccccc1,outcome,[5],inactive
same,AC50,[12],inconclusive: 100 µM
same,outcome,[7],inactive
same,AC50,[10],inconclusive: 45.2 µM
same,outcome,[10],inactive
same,AC50,[11],active: 25.8 µM
same,outcome,[3],inactive
CCC(C)(C)C(=O)OC1=C(c2ccc(Cl)cc2Cl)C(=O)OC12CCCCC2,AC50,[5],active: 41 µM
same,AC50,[6],active: 33 µM and active: 70.8 µM
same,AC50,[2],active: 16 µM
same,outcome,[7],inactive
same,AC50,[11],active: 74.9 µM
same,AC50,[8],active: 2.5 µM
same,AC50,[3],active: 28.4 µM
same,AC50,[4],inconclusive: 11.2 µM
CCC(C)c1ccc(O)cc1 (centres undefined),outcome,[5],inactive
same,outcome,[1],inactive
same,outcome,[10],inactive
same,AC50,[11],inconclusive: 0.0243 µM
same,AC50,[9],inconclusive: 0.00624 µM
CCN(CC)C(=O)C(C)Oc1cccc2ccccc12 (centres undefined),AC50,[5],active: 31.3 µM
same,AC50,[7],inconclusive: 46.4 µM
same,AC50,[11],inconclusive: 9.14 µM and inconclusive: 30.6 µM
same,AC50,[8],inconclusive: 46.1 µM
same,outcome,[8],inactive
same,AC50,[3],inconclusive: 46.1 µM
same,AC50,[4],inconclusive: 1.41 µM and inconclusive: 14.1 µM
ClC1(Cl)C2(Cl)C3(Cl)C4(Cl)C(Cl)(Cl)C5(Cl)C3(Cl)C1(Cl)C5(Cl)C24Cl (centres undefined),outcome,[5],inactive
same,AC50,[7],inconclusive: 46.1 µM
same,outcome,[11],inactive
same,AC50,[8],inconclusive: 78.5 µM
same,AC50,[3],inconclusive: 46.1 µM
C#CCOS(=O)OC1CCCCC1Oc1ccc(C(C)(C)C)cc1 (centres undefined),AC50,[1],active: 39.4 µM
same,outcome,[1],inactive
same,AC50,[6],active: 31.6 µM
same,AC50,[10],active: 2.65 µM and active: 1.54 µM
same,AC50,[11],inconclusive: 46.1 µM
same,AC50,[8],active: 2.53 µM
same,AC50,[9],active: 70.4 µM
same,outcome,[9],inactive
C=CCc1ccc(OC)cc1,outcome,[1],inactive
CC(C)Oc1cc(-n2nc(C(C)(C)C)oc2=O)c(Cl)cc1Cl,AC50,[1],active: 50 µM
same,outcome,[1],inactive
same,AC50,[6],active: 74.7 µM
same,AC50,[9],active: 27.7 µM
same,outcome,[9],inactive
same,outcome,[3],inactive
same,AC50,[4],active: 28.5 µM
Clc1ccc(Cl)cc1,AC50,[1],inconclusive: 50 µM
same,outcome,[1],inactive
same,AC50,[12],inconclusive: 100 µM
same,AC50,[8],inconclusive: 46.1 µM and inconclusive: 82.1 µM
same,AC50,[9],inconclusive: 46.1 µM and inconclusive: 23 µM
same,outcome,[9],inactive
same,AC50,[3],inconclusive: 46.1 µM
same,AC50,[4],inconclusive: 46.1 µM and inconclusive: 234 nM
O=C1Nc2ccc(Cl)cc2C(c2ccccc2)=NC1O (centres undefined),outcome,[5],inactive
same,AC50,[11],inconclusive: 48.6 nM and inconclusive: 23 µM
same,AC50,[8],inconclusive: 32.5 µM
same,AC50,[3],inconclusive: 40.1 µM and active: 77.3 µM
same,AC50,[4],inconclusive: 11.3 µM and inconclusive: 5.95 µM
same,AC50,[13],active: 86.7 µM
CCCCOC(=O)[C@@H](C)Oc1ccc(Oc2ccc(C#N)cc2F)cc1,AC50,[1],active: 13.5 µM
same,outcome,[1],inactive
same,AC50,[2],inconclusive: 49.8 µM
same,AC50,[11],inconclusive: 45.9 µM
same,AC50,[4],inconclusive: 45.9 µM
FC(F)(F)c1ccc(Cl)cc1,AC50,[5],inconclusive: 4.33 µM
same,AC50,[7],inconclusive: 46.1 µM and inconclusive: 45.9 µM
same,AC50,[9],inconclusive: 46.1 µM and inconclusive: 14.4 µM
same,AC50,[3],inconclusive: 45.9 µM
same,AC50,[4],inconclusive: 46.1 µM and inconclusive: 12.8 µM
same,AC50,[13],inconclusive: 46.1 µM
C=CC1(C)OC(=O)N(c2cc(Cl)cc(Cl)c2)C1=O (centres undefined),AC50,[5],inconclusive: 0.0119 µM
same,outcome,[6],inactive
same,AC50,[11],inconclusive: 46.1 µM and inconclusive: 45.9 µM
same,AC50,[9],inconclusive: 45.9 µM
same,outcome,[3],inactive
same,AC50,[4],inconclusive: 46.1 µM
same,AC50,[13],inconclusive: 46.1 µM
